Results are given in words; binding and its absence hold for the method and conditions named. In cells and extracts the contact can be indirect. Some binding calls cover weakened binding; strength is not graded here.
How the values were obtained:
[1] = target: FLAG-SIRT5 WT (UniProt Q9NXA8); test: co-IP; FLAG-SIRT5 WT or H158Y expressed in HCT116 and LoVo cells, RIPA lysate, Protein G agarose; which partner was precipitated is not told
[2] = target: FLAG-SIRT5 H158Y (UniProt Q9NXA8); test: as above
[3] = target: sirtuin5 (SIRT5), endogenous (human (endogenous in HCT116 and LoVo)) (UniProt Q9NXA8); test: co-IP; endogenous SIRT5 immunoprecipitated with anti-SIRT5 antibody from HCT116 and LoVo lysates (RIPA buffer, Protein G agarose), Western blot with anti-TKT; IgG immunoprecipitation as control

Sequences of proteins named here, by UniProt entry; tags and fusion partners are left off. A change or cut given only in a name is not applied to a line headed by its entry. A line that says so, or that is headed by a name, gives the form on record, which may keep a tag or linker. Residues count along the entry.
sirtuin5 (SIRT5), endogenous (human (endogenous in HCT116 and LoVo)) (Q9NXA8, residues 37-310): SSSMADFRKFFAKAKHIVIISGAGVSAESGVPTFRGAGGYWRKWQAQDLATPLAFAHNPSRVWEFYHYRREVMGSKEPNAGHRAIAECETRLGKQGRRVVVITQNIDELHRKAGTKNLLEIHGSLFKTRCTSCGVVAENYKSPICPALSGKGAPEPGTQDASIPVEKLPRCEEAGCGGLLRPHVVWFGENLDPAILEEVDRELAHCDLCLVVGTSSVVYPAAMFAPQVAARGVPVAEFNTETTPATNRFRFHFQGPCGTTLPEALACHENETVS
FLAG-SIRT5 H158Y (Q9NXA8, form named): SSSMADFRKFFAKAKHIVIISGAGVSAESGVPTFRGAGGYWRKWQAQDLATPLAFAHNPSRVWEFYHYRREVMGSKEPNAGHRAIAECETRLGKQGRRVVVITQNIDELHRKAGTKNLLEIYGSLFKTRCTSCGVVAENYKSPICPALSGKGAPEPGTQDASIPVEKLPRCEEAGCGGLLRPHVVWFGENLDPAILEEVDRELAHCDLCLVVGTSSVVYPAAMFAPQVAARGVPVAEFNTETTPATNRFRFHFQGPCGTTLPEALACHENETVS

Measured: binding

B1: transketolase (TKT), endogenous (enzyme, UniProt P29401 1-623)
chain: MESYHKPDQQKLQALKDTANRLRISSIQATTAAGSGHPTSCCSAAEIMAVLFFHTMRYKSQDPRNPHNDRFVLSKGHAAPILYAVWAEAGFLAEAELLNLRKISSDLDGHPVPKQAFTDVATGSLGQGLGAACGMAYTGKYFDKASYRVYCLLGDGELSEGSVWEAMAFASIYKLDNLVAILDINRLGQSDPAPLQHQMDIYQKRCEAFGWHAIIVDGHSVEELCKAFGQAKHQPTAIIAKTFKGRGITGVEDKESWHGKPLPKNMAEQIIQEIYSQIQSKKKILATPPQEDAPSVDIANIRMPSLPSYKVGDKIATRKAYGQALAKLGHASDRIIALDGDTKNSTFSEIFKKEHPDRFIECYIAEQNMVSIAVGCATRNRTVPFCSTFAAFFTRAFDQIRMAAISESNINLCGSHCGVSIGEDGPSQMALEDLAMFRSVPTSTVFYPSDGVATEKAVELAANTKGICFIRTSRPENAIIYNNNEDFQVGQAKVVLKSKDDQVTVIGAGVTLHEALAAAELLKKEKINIRVLDPFTIKPLDRKLILDSARATKGRILTVEDHYYEGGIGEAVSSAVVGEPGITVTHLAVNRVPRSGKPAELLKMFGIDRDAIAQAVRGLITKA
binds: all assays above
